About 22,000 (6.9%) of roughly 320,000 compounds were called active. Inconclusive means that the source gave no clear call. Such entries were picked first, then a sample of the others. Calls follow the shape of the dose curve; as a rule, active = well fitted inhibition curve with a large enough effect; inconclusive = small, poorly fitted or top-dose-only effect, or another doubt; inactive = no such curve, though single readings can be large or run the other way. A potency beside an inconclusive call is a rough fit, not a confirmed value.
Test: Primary qHTS for delayed death inhibitors of the malarial parasite plastid, 96 hour incubation
Conditions: P. falciparum luciferase reporter growth; series mostly up to 28.7 µM
Method in brief: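 Parasite growth measured via integrated firefly luciferase reporter in P. falciparum. Infected erythrocytes at 2% hematocrit, 0.05% parasitemia final were treated 96 hours at 37 C under 5% CO2, and luminescence was read.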
Potency is read from the fitted curve at half-maximal effect.

Row | SMILES | Potency
1 | CN1CCN(S(=O)(=O)c2cccc(S(=O)(=O)c3cccc(S(=O)(=O)N4CCN(C)CC4)c3)c2)CC1 | inactive
2 | COc1ccc(C2C(C(=O)NCc3ccccn3)CCC(=O)N2c2cc(OC)c(OC)c(OC)c2)cc1 (centres undefined) | active: 11.7 µM
3 | COCc1cc(C)nc(OCC(=O)N/N=C\c2cc(C)n(-c3cccc(C(F)(F)F)c3)c2C)c1C#N | inactive
4 | O=C(C[n+]1cccc(CNC(=O)c2ccc(OC(F)F)cc2)c1)c1ccccc1 | inconclusive: 11.7 µM [inhibitor, partial curve, poor fit]
5 | CN1CCN(CCCNC(=O)c2cc3c(-c4ccc(Cl)cc4)nn(C)c3s2)CC1 | inconclusive: 16.5 µM [inhibitor, single point]
6 | COc1ccnc2c1c(=O)n(Cc1ccc(Cl)cc1Cl)c(=O)n2C | inconclusive: 10.4 µM [inhibitor, single point]
7 | CCOc1ccc(NC(=O)CN2C(=O)c3ccccc3C2=O)cc1 | inconclusive: 3.29 µM [inhibitor, single point]
8 | Cc1cccc(/C=N/NC(=O)c2ccc(NC(=O)c3ccccc3Cl)cc2)n1 | inconclusive: 18.5 µM [inhibitor, single point]
9 | Cc1cc(C)c2nc(SCC(=O)NCCC3=CCCCC3)cc(C)c2c1 | inconclusive: 1.04 µM [inhibitor, full curve, poor fit]
10 | CCCC1CC(C)(c2csc(Nc3ccc(OCC)cc3)n2)OC1=O (centres undefined) | inconclusive: 10.4 µM [inhibitor, single point]
11 | O=C(CN1C(=O)/C(=C\c2cccc(Br)c2)Oc2ccccc21)NCC1CCCO1 (centres undefined) | active: 13.1 µM
12 | O=C(NN1CCOCC1)c1ccc(Cl)s1 | inactive
13 | CN(CCCC(=O)NC1CC(C)(C)NC(C)(C)C1)S(=O)(=O)c1ccc([N+](=O)[O-])cc1 | inconclusive: 2.33 µM [inhibitor, single point]
14 | Nc1cc(N2CCNCC2)ccc1[N+](=O)[O-] | inconclusive: 9.28 µM [inhibitor, partial curve]
15 | O=C(Nc1ccc(Cl)cc1)Nc1ccccc1CC[N+](=O)[O-] | inconclusive: 18.5 µM [inhibitor, single point]
16 | NNC(=O)c1sccc1OCc1ccc(Cl)cc1 | inconclusive: 9.28 µM [inhibitor, partial curve]
17 | COC(=O)Nc1ccc2c(c1)N(C(=O)CCCl)c1ccccc1S2 | inactive
18 | COCC(=O)Nc1ccc(-c2cn3cccnc3n2)cc1 | inconclusive: 0.828 µM [inhibitor, partial curve, poor fit]
19 | Cc1ccc(C(=O)c2sc3nc4c(cc3c2N)CCC4)cc1 | inconclusive: 2.33 µM [inhibitor, partial curve, poor fit]

In the list so far, two have an aryl methoxy group.
Row | SMILES | Potency
2 | COc1ccc(C2C(C(=O)NCc3ccccn3)CCC(=O)N2c2cc(OC)c(OC)c(OC)c2)cc1 (centres undefined) | active: 11.7 µM
6 | COc1ccnc2c1c(=O)n(Cc1ccc(Cl)cc1Cl)c(=O)n2C | inconclusive: 10.4 µM [inhibitor, single point]

From PubChem BioAssay AID504834 (National Center for Advancing Translational Sciences (NCATS), 2011)
